The record followed here is PMC10619474.

Amino acid sequences for entries named in this document (tags omitted).
UniProt P09086: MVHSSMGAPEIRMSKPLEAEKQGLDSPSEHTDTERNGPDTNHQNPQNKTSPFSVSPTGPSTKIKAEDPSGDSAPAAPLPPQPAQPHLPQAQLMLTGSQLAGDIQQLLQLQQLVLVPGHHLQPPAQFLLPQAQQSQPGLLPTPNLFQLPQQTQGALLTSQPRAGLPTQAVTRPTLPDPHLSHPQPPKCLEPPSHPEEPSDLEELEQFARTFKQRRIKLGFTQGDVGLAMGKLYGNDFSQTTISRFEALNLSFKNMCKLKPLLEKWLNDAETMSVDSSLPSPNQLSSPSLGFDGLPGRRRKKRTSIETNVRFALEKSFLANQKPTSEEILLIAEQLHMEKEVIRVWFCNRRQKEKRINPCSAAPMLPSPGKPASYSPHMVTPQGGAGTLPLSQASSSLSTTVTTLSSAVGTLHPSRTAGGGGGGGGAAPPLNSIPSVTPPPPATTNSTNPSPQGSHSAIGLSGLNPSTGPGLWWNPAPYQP
UniProt Q01860: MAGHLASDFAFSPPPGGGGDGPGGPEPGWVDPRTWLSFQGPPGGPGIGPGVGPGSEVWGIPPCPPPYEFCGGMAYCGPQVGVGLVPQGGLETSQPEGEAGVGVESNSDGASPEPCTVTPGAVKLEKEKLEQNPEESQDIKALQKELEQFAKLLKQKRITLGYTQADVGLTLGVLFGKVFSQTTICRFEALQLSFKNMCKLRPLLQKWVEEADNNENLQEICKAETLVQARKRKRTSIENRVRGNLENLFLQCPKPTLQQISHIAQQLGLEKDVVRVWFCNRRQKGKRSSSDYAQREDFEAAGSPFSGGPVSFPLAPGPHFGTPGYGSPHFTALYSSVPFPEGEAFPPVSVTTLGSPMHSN
UniProt P48431: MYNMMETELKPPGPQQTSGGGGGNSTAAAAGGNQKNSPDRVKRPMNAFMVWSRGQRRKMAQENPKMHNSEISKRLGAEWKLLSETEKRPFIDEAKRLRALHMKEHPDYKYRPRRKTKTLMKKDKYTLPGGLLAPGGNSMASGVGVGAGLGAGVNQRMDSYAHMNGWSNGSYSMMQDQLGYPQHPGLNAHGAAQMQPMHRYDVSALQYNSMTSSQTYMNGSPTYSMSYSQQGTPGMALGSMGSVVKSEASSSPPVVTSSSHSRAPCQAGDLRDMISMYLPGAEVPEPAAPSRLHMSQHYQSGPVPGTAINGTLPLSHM

Results are given in words; binding and its absence hold for the method and conditions named. For part of these data: Binding seen in cells or lysates may run through a third protein. Some binding calls cover weakened binding; strength is not graded here.

One test addresses GST-POU2F2 (UniProt P09086). As to the kind of experiment: pull-down; GST pull-down of His-SOX2 or His-OCT4 with GST-POU2F2; called a direct interaction; conditions in the Supporting Information; both purified.
In test [1] the target is POU2F2 (in Hep3B and Huh7 cells) (human (endogenous in Hep3B, Huh7)) (UniProt P09086). As to the kind of experiment: co-IP; immunoprecipitation with an anti-POU2F2 antibody or control IgG in Hep3B and Huh7 cells, blot for OCT4 and SOX2.

For the substance His-OCT4 (from UniProt Q01860 1-360), the binding entry with GST-POU2F2 is reported as “binds”.
On to “OCT4 (in Hep3B and Huh7 cells) (from UniProt Q01860 1-360)”, for which the binding result in test [1] was “binds”.
As for His-SOX2 (from UniProt P48431 1-317), the binding result with GST-POU2F2 is “no binding”.
